Results published in the supplement of paper PMC8728848.
Some of the results follow.

What was measured:
Assay in all cases: glycan array binding signal (z-score within array); higher = stronger binding
Settings in all cases: glycan notation: IUPAC condensed, linker removed
[1] = target: Neu5Gc(a2-8)Neu5Gc(a2-3)Gal(b1-4)GlcNAc(b1-3)Gal(b1-4)GlcNAc
Procedure, shortened: (§1)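 Negative Z-scores can be read as non-binding. The Z-score is calculated within each array and then averaged across arrays of one protein sequence at different concentrations or buffers and across linkers. Arrays, 3228 in all, were curated from the Consortium for Functional Glycomics database and kept only where the protein sequence was available.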

[2] = target: Neu5Gc(a2-8)Neu5Gc(a2-6)Gal(b1-4)GlcNAc
Procedure, shortened: as §1

[3] = target: Neu5Gc(b2-6)Gal(b1-4)GlcNAc
Procedure, shortened: as §1

B1: SHCBP1-GST (Homo sapiens), Q8NEM2 (protein)
chain: MADGSLTGGGLEAAAMAPERMGWAVEQELASLEKGLFQDEDSCSDCSYRDKPGSSLQSFMPEGKTFFPEIFQTNQLLFYERFRAYQDYILADCKASEVQEFTAEFLEKVLEPSGWRAVWHTNVFKVLVEITDVDFAALKAVVRLAEPYLCDSQVSTFTMECMKELLDLKEHRLPLQELWVVFDDSGVFDQTALAIEHVRFFYQNIWRSWDEEEEDEYDYFVRCVEPRLRLHYDILEDRVPSGLIVDYHNLLSQCEESYRKFLNLRSSLSNCNSDSEQENISMVEGLKLYSEMEQLKQKLKLIENPLLRYVFGYQKNSNIQAKGVRSSGQKITHVVSSTMMAGLLRSLLTDRLCQEPGEEEREIQFHSDPLSAINACFEGDTVIVCPGHYVVHGTFSIADSIELEGYGLPDDIVIEKRGKGDTFVDCTGADIKISGIKFVQHDAVEGILIVHRGKTTLENCVLQCETTGVTVRTSAEFLMKNSDLYGAKGAGIEIYPGSQCTLSDNGIHHCKEGILIKDFLDEHYDIPKISMVNNIIHNNEGYGVVLVKPTIFSDLQENAEDGTEENKALKIQTSGEPDVAERVDLEELIECATGKMELCARTDPSEQVEGNCEIVNELIAASTQKGQIKKKRLSELGITQADDNLMSQEMFVGIVGNQFKWNGKGSFGTFLF
glycan array binding signal (z-score) [1]: -0.177 | glycan array binding signal (z-score) [2]: 0.341 | glycan array binding signal (z-score) [3]: 0.55
